For 1 compound, viability results are on record in patent publication US11484543B2, “Compositions and methods for diagnosing and treating diseases and disorders associated with mutant KCNJ5” (The Rockefeller University, priority 2017, dated 2022).

This experiment has as its target T1, KCNJ5^G151R (Homo sapiens, UniProt P48544, G151R).
T1 construct: expressed in transfected cells
T1 sequence (P48544 1-419 G151R): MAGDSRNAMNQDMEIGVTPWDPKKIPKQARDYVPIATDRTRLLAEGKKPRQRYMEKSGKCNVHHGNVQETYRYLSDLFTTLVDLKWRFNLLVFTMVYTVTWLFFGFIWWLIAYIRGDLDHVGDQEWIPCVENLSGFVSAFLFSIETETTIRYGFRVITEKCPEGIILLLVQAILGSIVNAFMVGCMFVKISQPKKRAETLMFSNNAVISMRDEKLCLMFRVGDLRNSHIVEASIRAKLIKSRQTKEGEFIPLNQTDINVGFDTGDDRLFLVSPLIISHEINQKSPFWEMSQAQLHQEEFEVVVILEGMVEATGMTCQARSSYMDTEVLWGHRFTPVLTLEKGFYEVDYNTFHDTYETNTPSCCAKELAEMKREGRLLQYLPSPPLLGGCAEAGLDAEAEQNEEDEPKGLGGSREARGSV
In words: cell-based. The following applies: HEK293, 72 h. On the procedure:
WT or mutant human KCNJ5 cDNAs (Choi et al., 2011, Science 331:768-772) were subcloned into the pcDNA5/FRT/TO vector using BamHI and HindIII. Single copies of WT or mutant human KCNJ5 cDNAs expressed under the control of tetracycline-inducible promoter were introduced into HEK293 cells using the Flp-in T-Rex System (Invitrogen) according to the manufacturer's instructions. Cells were grown in selective media containing 10% Tet-system approved FBS (Clontech) until induction.
Assay plates were centrifuged and incubated overnight at 37° C. 20 nL was transferred from the compound source plate to the cell assay plate using an Aquarius (Tecan) with a 384-well pin tool (V&P Scientific). The final concentration of compound for screening was 10 μM and the final DMSO concentration was 0.1%. 1 μL of tetracycline (final concentration 1 μg/mL) was added to compound containing and negative control wells by Multidrop Combi to induce expression. 1 μL of media was added to positive control wells. Assay plates were centrifuged and incubated for 72 hours at 37° C., 5% CO2. CellTiter-Glo (Promega) was used to measure cell viability in the assay wells according to the manufacturer's instructions. 10 μL/well of CellTiter-Glo reagent was added to the assay plates using a MultiDrop Combi. […] Luminescence was read on an Envision plate reader (PerkinElmer) with 0.3 second sampling time per well. Raw data (luminescence counts per second) was normalized to percent effect by the formula 100−(((sample−negative control mean)/(positive control mean−negative control mean))*100).
Data was analyzed using the programs Excel (Microsoft) and Prism (GraphPad). […]
Cellular ATP levels were measured as a proxy for cell viability, using a commercially available luciferase assay (Crouch et al., 1993, Proc. Natl. Acad. Sci. U.S.A. 109:2533-2538).
Conditions were designed to maximize reproducibility and the signal-to-background ratios (S/B) (Zhang et al., 1999, J. Biomol. Screen 4:67-73) comparing ATP level in uninduced and induced cells. […] ATP levels were measured 72 hours after induction. […]

Each structure is given as a SMILES string. Read-outs that look alike come from different tables or passages of the source.

On to `CN1CCC[C@@H]1CCO[C@](C)(c1ccccc1)c1ccc(Cl)cc1` (racemic) [YU033748, Clemastine], for which the viability at 10 µM (read-out: % effect (1)) is 60.8%, the viability at 10 µM (read-out: % effect (2)) was found to be 44.6% and the viability at 10 µM (read-out: mean % effect) worked out at 52.7%.
